This is an account of results in PMC2923778 (Journal of Molecular Biology, 2010).

No constants are given. Whether binding was seen depends on the method and setting.

This experiment addresses T1, mSPSB2(12–224) (murine, UniProt O88838 12-224).
T1 construct: murine SPSB2 (SSB-2), residues 12-224: lacks the first 11 residues and the C-terminal SOCS box; Uniformly 15N-labelled in one NMR experiment; also called mSPSB2ΔSB; 15N-mSPSB2(12–224); source: E. coli Origami B(DE3) pLysS, GST fusion, purified (glutathione-Sepharose, thrombin cleavage, gel filtration)
T1 sequence (looked up): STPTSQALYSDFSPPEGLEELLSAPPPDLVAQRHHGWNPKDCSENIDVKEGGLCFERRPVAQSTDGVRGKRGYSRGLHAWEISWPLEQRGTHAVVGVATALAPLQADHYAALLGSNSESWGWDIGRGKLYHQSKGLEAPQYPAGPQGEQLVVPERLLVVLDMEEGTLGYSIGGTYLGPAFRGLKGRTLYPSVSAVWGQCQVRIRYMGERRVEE
Description: ITC; 100 μM peptide titrated into 10 μM mSPSB protein; 22 °C; 20 mM Tris, 150 mM sodium chloride, 2.5 mM calcium chloride, pH 8.0; single binding site model; both purified. In general terms: Isothermal titration calorimetry measures the heat released or taken up as one component is titrated into another.

B1: [N70A]hPar-4(64–77) (peptide)
peptide: AAANELANNLPGGA
notes: human prostate apoptosis response protein-4 (hPar-4), residues 64-77, N70A; source: synthetic peptide (GenScript Corporation)
For B1, the binding entry was “no binding (tested: Kd > 50 μM)”.

B2: [N71A]hPar-4(64–77) (peptide)
peptide: AAANELNANLPGGA
notes: human prostate apoptosis response protein-4 (hPar-4), residues 64-77, N71A; source: synthetic peptide (GenScript Corporation)
For B2, the binding result was “no binding (tested: Kd > 50 μM)”.
